# Measurements taken from US5654178A, “Immunoassay for tetrachloroisophthalonitrile (chlorothalonil), its derivatives and breakdown products” (ISK Biosciences Corporation, priority 1995, dated 1997).
# Assay: Recovery of TCPN from spiked tomato by polyclonal EIA
structure (smiles),measurement,setting,value
"N#Cc1c(Cl)c(Cl)c(Cl)c(C#N)c1Cl [TCPN, tetrachloroisophthalonitrile]",% Recovery,spike level 0.10 ppm,120%
same,Amount Recovered,spike level 0.10 ppm,0.12 ppm
same,% Recovery,spike level 0.49 ppm,104%
same,Amount Recovered,spike level 0.49 ppm,0.51 ppm
same,% Recovery,spike level 0.98 ppm,103%
same,Amount Recovered,spike level 0.98 ppm,1.01 ppm
same,% Recovery,spike level 4.9 ppm,115%
same,Amount Recovered,spike level 4.9 ppm,5.6 ppm
same,% Recovery,spike level 9.7 ppm,106%
same,Amount Recovered,spike level 9.7 ppm,10.3 ppm
same,% Recovery,spike level 19.6 ppm,121%
same,Amount Recovered,spike level 19.6 ppm,23.6 ppm
